Reference: article PMC12026874 (Gels, 2025)

experiment: peptide made by a vendor; conditions: whole synthesis, HPLC (LC-MS purity chromatograms in Supplementary Materials)

Compared with “PEPTIDE1{[ac].E.M.L.W.L.S.D.G.S.M.G.F.A.E.D.T.D.A.A.F.L.P.G.D.T.I.F.G.R.I}$$$$V2.0”, “PEPTIDE1{[ac].Q.N.G.E.Y.G.C.V.A.D.T.P.N.L.L.Y.A.F.K.I.L.D.Y.R.Q}$$$$V2.0” is higher in “final HPLC purity” value: 87.68% for the first, 88.81% for the second.

Going from “PEPTIDE1{[ac].R.A.G.Q.P.I.T.A.F.L.V.R.D}$$$$V2.0” to “PEPTIDE1{[ac].S.R.P.S.D.P.A.S.A.V.A.G.E.D.Y.T.G.I.S.R.N}$$$$V2.0”, the “final HPLC purity” value falls from 91.20% to 85.74%.

HELM strings list residues between dots; [ac] is acetyl, [am] amide, other brackets name non-standard units.
